Measurements from article PMC7712234.
No constants are given. Whether binding was seen depends on the method and setting. Some binding calls cover weakened binding; strength is not graded here.

Sequences of proteins named here, by UniProt entry; tags and fusion partners are left off.
UniProt C1H8F5: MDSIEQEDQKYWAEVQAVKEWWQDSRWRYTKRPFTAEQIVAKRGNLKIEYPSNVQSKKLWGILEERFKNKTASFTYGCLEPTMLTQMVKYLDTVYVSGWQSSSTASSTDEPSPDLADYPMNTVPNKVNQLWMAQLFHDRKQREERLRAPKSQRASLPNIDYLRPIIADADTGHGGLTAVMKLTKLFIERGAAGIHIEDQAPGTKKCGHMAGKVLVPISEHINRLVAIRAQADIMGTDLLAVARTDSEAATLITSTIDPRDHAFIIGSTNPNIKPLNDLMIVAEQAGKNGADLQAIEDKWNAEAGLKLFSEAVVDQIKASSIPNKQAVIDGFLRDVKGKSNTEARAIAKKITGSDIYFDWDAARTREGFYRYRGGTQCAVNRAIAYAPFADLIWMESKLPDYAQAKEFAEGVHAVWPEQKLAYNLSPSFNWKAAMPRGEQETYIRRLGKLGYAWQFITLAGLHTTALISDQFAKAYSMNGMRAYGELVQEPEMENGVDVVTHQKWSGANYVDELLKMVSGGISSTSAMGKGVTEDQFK

Target: Paracoccidioides lutzii isocitrate lyase (Paracoccidioides lutzii (endogenous in P. lutzii ATCC-MYA-826)) (UniProt C1H8F5)
Assay: native gel or EMSA; blue native PAGE of soluble total protein extracts from mycelium, mycelium-to-yeast transition and yeast; 5-18% gradient gel, Bis-Tris pH 7.0, 15 °C; the phase is not told for each partner

B1: triosephosphate isomerase (protein, UniProt Q96VN5 1-249)
chain: MPRKFFVGGNFKMNGTAKSITHIITNLNSAKLDPSTEIVIAPPAIYLVLARQLANGQVAVSAQNVFDKPNGAFTGELSVEQLRDEKITWTLAGHSERRVLLREDDEFVARKTKAAINGGLNVILCIGESLEEREAGKTIDVVTRQLDAVAEEVSPAEWNKVVIAYEPIWAIGTGKVATTEQAQEVHASIRKWLNEKISPEAAENIRVIYGGSVTENNCRDLAAQPDVDGFLVGGASLKPAFVDIINARL
**Q.** Which binding does the source give for B1 here?
**A.** binds
